Some results were stated once for a whole list of compounds, not compound by compound.
These molecules were tested against Tie-2 kinase enzyme (Homo sapiens, UniProt Q02763) (assay: Tie-2 Homogenous Time Resolved Fluorescent (HTRF) kinase assay). Settings: read-out: IC50's for the inhibition of Tie-2 as measured by the HTRF assay.
Type: biochemical

Protein sequences, listed by entry. Tags and fused reporters are not part of them. Residues count along the entry.
UniProt Q02763, 23-1124: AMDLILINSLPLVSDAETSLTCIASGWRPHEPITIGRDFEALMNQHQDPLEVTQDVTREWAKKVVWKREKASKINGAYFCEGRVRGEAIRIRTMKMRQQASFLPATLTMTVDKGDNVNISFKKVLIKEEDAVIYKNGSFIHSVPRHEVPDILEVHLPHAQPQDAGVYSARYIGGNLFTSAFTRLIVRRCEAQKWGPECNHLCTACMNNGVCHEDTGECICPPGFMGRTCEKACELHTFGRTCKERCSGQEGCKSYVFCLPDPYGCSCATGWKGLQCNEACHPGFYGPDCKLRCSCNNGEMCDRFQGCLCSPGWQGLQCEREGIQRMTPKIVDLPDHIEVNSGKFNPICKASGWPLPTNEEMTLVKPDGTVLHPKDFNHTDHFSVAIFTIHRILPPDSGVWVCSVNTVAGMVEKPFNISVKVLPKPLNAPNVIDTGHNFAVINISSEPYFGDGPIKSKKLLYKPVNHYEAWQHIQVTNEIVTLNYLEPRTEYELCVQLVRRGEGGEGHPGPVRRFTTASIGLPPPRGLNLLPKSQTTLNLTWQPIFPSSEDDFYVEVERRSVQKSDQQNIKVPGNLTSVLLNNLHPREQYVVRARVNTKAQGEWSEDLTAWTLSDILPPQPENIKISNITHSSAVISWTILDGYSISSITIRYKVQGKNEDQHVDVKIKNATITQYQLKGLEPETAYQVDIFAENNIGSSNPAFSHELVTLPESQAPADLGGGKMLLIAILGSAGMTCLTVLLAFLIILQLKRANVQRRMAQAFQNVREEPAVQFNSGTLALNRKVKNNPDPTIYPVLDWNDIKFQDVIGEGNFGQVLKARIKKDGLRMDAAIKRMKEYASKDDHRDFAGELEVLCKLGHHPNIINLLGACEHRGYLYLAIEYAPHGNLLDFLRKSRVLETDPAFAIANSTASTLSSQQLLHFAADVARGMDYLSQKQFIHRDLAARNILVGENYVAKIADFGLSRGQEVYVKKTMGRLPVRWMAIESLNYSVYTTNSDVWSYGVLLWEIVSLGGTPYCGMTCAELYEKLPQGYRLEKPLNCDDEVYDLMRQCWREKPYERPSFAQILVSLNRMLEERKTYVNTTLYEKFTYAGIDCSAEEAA

Row | SMILES | IC50 [µM]
1 | Cc1ccc(NC(=O)c2cc(C(F)(F)F)cc(Cl)c2F)cc1Oc1ncccc1-c1ccncn1 [Example 691, 3-chloro-2-fluoro-N-(4-methyl-3-((3-(4-pyrimidinyl)-2-pyridinyl)oxy)phenyl)-5-(trifluoromethyl)benzamide] | < 5
2 | Cc1ccc(NC(=O)c2cc(C(F)(F)F)ccc2Cl)cc1Oc1ncccc1-c1ccncn1 [Example 692, 2-chloro-N-(4-methyl-3-((3-(4-pyrimidinyl)-2-pyridinyl)oxy)phenyl)-5-(trifluoromethyl)benzamide] | < 5
3 | Cc1ccc(NC(=O)c2cc(C(C)(C)C)nn2C)cc1Oc1ncccc1-c1ccncn1 [Example 693, 3-(1,l-dimethylethyl)-1-methyl-N-(4-methyl-3-((3-(4-pyrimidinyl)-2-pyridinyl)oxy)phenyl)-1H-pyrazole-5-carboxamide] | < 5
4 | Cc1ccc(NC(=O)c2cccc(OC(F)(F)F)c2)cc1Oc1ncccc1-c1ccncn1 [Example 694, N-(4-methyl-3-((3-(4-pyrimidinyl)-2-pyridinyl)oxy)phenyl)-3-((trifluoromethyl)oxy) benzamide] | < 5
5 | Cc1ccc(NC(=O)c2cc(C(F)(F)F)cc(C(F)(F)F)c2)cc1Oc1ncccc1-c1ccncn1 [Example 695, N-(4-methyl-3-((3-(4-pyrimidinyl)-2-pyridinyl)oxy)phenyl)-3,5-bis(trifluoromethyl) benzamide] | < 5
6 | O=C(Nc1cc(C(F)(F)F)cc(C(F)(F)F)c1)Nc1ccc(Oc2ncccc2-c2ccncn2)c2ncccc12 [Example 696, N-(3,5-bis(trifluoromethyl)phenyl)-N′-(8-((3-(4-pyrimidinyl)-2-pyridinyl)oxy)-5-quinolinyl)urea] | < 5
7 | O=C(Nc1ccc(C(F)(F)F)cc1)Nc1ccc(Oc2ncccc2-c2ccncn2)c2ncccc12 [Example 697, N-(8-((3-(4-pyrimidinyl)-2-pyridinyl)oxy)-5-quinolinyl)-N′-(4-(trifluoromethyl)phenyl)urea] | < 5
8 | CNc1ncnc(-c2cccnc2Oc2ccc(NC(=O)Nc3cc(C(F)(F)F)ccc3F)c3ccccc23)n1 [Example 710, N-(2-fluoro-5-(trifluoromethyl)phenyl)-N′-(4-((3-(4-(methylamino)-1,3,5-triazin-2-yl)-2-pyridinyl)oxy)-1-naphthalenyl)urea] | < 5
9 | COc1ccc(C(C)(C)C)cc1C(=O)Nc1ccc(C)c(Oc2ncccc2-c2ccncn2)c1 [Example 711, 5-(1,1-dimethylethyl)-2-(methyloxy)-N-(4-methyl-3-((3-(4-pyrimidinyl)-2-pyridinyl)oxy)phenyl) benzamide] | < 5
10 | CNc1nccc(-c2cccnc2Oc2cc(NC(=O)c3cc(C(C)(C)C)ccc3OC)ccc2C)n1 [Example 712, 5-(1,l-dimethylethyl)-N-(4-methyl-3-((3-(2-(methylamino)-4-pyrimidinyl)-2-pyridinyl)oxy)phenyl)-2-(methyloxy)benzamide] | < 5
11 | CNc1nccc(-c2cccnc2Oc2cc(NC(=O)c3cccc(OC(F)(F)F)c3)ccc2C)n1 [Example 713, N-(4-methyl-3-((3-(-2-(methylamino)-4-pyrimidinyl)-2-pyridinyl)oxy)phenyl)-3-((trifluoromethyl)oxy) benzamide] | < 5
12 | CNc1ncnc(-c2cccnc2Oc2cc(NC(=O)c3cccc(OC(F)(F)F)c3)ccc2C)n1 [Example 714, N-(4-methyl-3-((3-(4-(methylamino)-1,3,5-triazin-2-yl)-2-pyridinyl)oxy)phenyl)-3-((trifluoromethyl)oxy) benzamide] | < 5
13 | CNc1ncnc(-c2cccnc2Oc2cc(NC(=O)c3cc(C(C)(C)C)ccc3OC)ccc2C)n1 [Example 715, 5-(1,1-dimethylethyl)-N-(4-methyl-3-((3-(4-(methylamino)-1,3,5-triazin-2-yl)-2-pyridinyl)oxy)phenyl)-2-(methyloxy)benzamide] | < 5
14 | CNc1nccc(-c2cccnc2Oc2cc(NC(=O)c3cccc(OC(F)(F)C(F)F)c3)ccc2C)n1 [Example 716, N-(4-methyl-3-((3-(2-(methylamino)-4-pyrimidinyl)-2-pyridinyl)oxy)phenyl)-3-((1,1,2,2-tetrafluoroethyl)oxy)benz-amide] | < 5
15 | CNc1nccc(-c2cccnc2Oc2cc(NS(=O)(=O)c3cccc(Cl)c3Cl)ccc2C)n1 [Example 719, 2,3-dichloro-N-(4-methyl-3-((3-(2-(methylamino)-4-pyrimidinyl)-2-pyridinyl)oxy)phenyl) benzenesulfonamide] | < 5
16 | CNc1nccc(-c2cccnc2Oc2cc(NC(=O)c3cc(C(F)(F)F)ccc3Cl)ccc2C)n1 [Example 720, 2-chloro-N-(4-methyl-3-((3-(2-(methylamino)-4-pyrimidinyl)-2-pyridinyl)oxy)phenyl)-5-(trifluoromethyl)benzamide] | < 5
17 | CNc1nccc(-c2cccnc2Oc2cc(NC(=O)c3cc(C(C)(C)C)nn3C)ccc2C)n1 [Example 721, 3-(1,1-dimethylethyl)-1-methyl-N-(4-methyl-3-((3-(2-(methylamino)-4-pyrimidinyl)-2-pyridinyl)oxy)phenyl)-1H-pyrazole-5-carboxamide] | < 5
18 | CNc1ncnc(-c2cccnc2Oc2cc(NC(=O)c3cccc(C(F)(F)F)c3)ccc2C)n1 [Example 722, N-(4-methyl-3-((3-(4-(methylamino)-1,3,5-triazin-2-yl)-2-pyridinyl)oxy)phenyl)-3-(trifluoromethyl)benzamide] | < 5
19 | CNc1ncnc(-c2cccnc2Oc2cc(NC(=O)c3cc(C(F)(F)F)ccc3F)ccc2C)n1 [Example 723, 2-fluoro-N-(4-methyl-3-((3-(4-(methylamino)-1,3,5-triazin-2-yl)-2-pyridinyl)oxy)phenyl)-5-(trifluoromethyl)benz-amide] | < 5
20 | CNc1ncnc(-c2cccnc2Oc2cc(NC(=O)c3cccc(-n4cccc4)c3)ccc2C)n1 [Example 724, N-(4-methyl-3-((3-(4-(methylamino)-1,3,5-triazin-2-yl)-2-pyridinyl)oxy)phenyl)-3-(1H-pyrrol-1-yl)benzamide] | < 5
21 | CNc1ncnc(-c2cccnc2Oc2cc(NC(=O)Cc3cccc(C(F)(F)F)c3)ccc2C)n1 [Example 725, N-(4-methyl-3-((3-(4-(methylamino)-1,3,5-triazin-2-yl)-2-pyridinyl)oxy)phenyl)-2-(3-(trifluoromethyl)phenyl) acetamide] | < 5
22 | CNc1ncnc(-c2cccnc2Oc2ccc(Cl)c(NC(=O)Nc3cccc(C(F)(F)F)c3)c2)n1 [Example 726, N-(2-chloro-5-((3-(4-(methylamino)-1,3,5-triazin-2-yl)-2-pyridinyl)oxy)phenyl)-N′-(3-(trifluoromethyl)phenyl) urea] | < 5
23 | CNc1ncnc(-c2cccnc2Oc2ccc(Cl)c(NC(=O)c3cccc(C(F)(F)F)c3)c2)n1 [Example 727, N-(2-chloro-5-((3-(4-(methylamino)-1,3,5-triazin-2-yl)-2-pyridinyl)oxy)phenyl)-3-(trifluoromethyl)benzamide] | < 5
24 | CNc1ncnc(-c2cccnc2Oc2cc(NC(=O)c3cccc(Oc4ccccc4)c3)ccc2C)n1 [Example 728, N-(4-methyl-3-((3-(4-(methylamino)-1,3,5-triazin-2-yl)-2-pyridinyl)oxy)phenyl)-3-(phenyloxy)benzamide] | < 5
